Data as given in patent US8269005B2 (Sunovion Pharmaceuticals Inc., priority 2007, dated 2012).

Assay: Open-label human taste assessment (Flavor Profile panel), bitterness
Assay type: in vivo
Conditions: 0.01 mg/5 mL, scale 0-3, listed as salt

## CN1CCN(C(=O)O[C@H]2c3nccnc3C(=O)N2c2ccc(Cl)cn2)CC1 [L-malate, (S)-Zopiclone L-Malate]
T = 15 minutes aftertaste
  Human taste bitterness intensity: 0.8
T = 25 minutes aftertaste
  Human taste bitterness intensity: 0.2
